Consider 99 sequences from the supplement of paper PMC10338343.

± gives the standard deviation. Only a part is listed here, and it is no random draw. The uncertainty is large for many entries.
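Also: 1 nM active piRISC with 0.1 nM target library at 33 °C single turnover.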

In the test the test system is MILI (PIWIL2) piRISC loaded with piRNA #2 (26 nt). Briefly: pre-steady-state target cleavage rate (min^-1); MIWI and MILI are mouse PIWI proteins and EfPiwi is from a freshwater sponge; tags in brackets are library labels; higher = faster piRNA-guided slicing of the target. To be noted: guide: piRNA #2 5'p-UUAGGUAACCCAGUAGAUCCAGAGGA; auxiliary factor: 500 nM mouse GTSF1. In a few lines: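 Reactions were run for 0–8 or 0–960 min at 33 °C in HEPES–potassium acetate buffer, combining 1 nM active affinity-purified piRISC with one synthetic guide, […] transcribed, DNA-blocked target RNA library and, in some cases, 500 nM GTSF1 partner protein. Sequencing of uncleaved targets followed, with normalisation to depth and to weakly complementary targets. Three trials were pooled, k3 was capped at 0.0001 min^-1, and the pre-steady-state cleavage rate was taken from a burst-and-steady-state fit.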
Consider CUUAAGGAGACCUUCUACUGGCUUACCAAA, for which the “pre-steady-state target cleavage rate” value is 0.000182 ± 0.021.
In the case of CUUAAGGACUGGAUGAACUGGGUUACCUAA, the “pre-steady-state target cleavage rate” value was determined as 0.00178 ± 0.016.
For CUUAAGGAGAGGAUCUACAUGGGUUACCUAA, the “pre-steady-state target cleavage rate” value came out at 0.000107 ± 0.043.
Next, CUUAAGGAGACCAUCACUGGGUUACCUAA: 0.000467 ± 0.018.
With CUUAACCUCUGGAUCUCCUGGGUUACCUAA the figure was 0.213 ± 0.084; with CUUAAGGAGAGGAUCUAGUGGGUUUCCUAA, 0.0009 ± 0.011; with CUUAAGGUCUGGAACUACUGGGUUACCAAA, 0.00238 ± 0.011.
Take CUUAAGGACUGCAUCUUCUGGGUUACCUAA: the “pre-steady-state target cleavage rate” value was 0.00833 ± 0.0099.
On to CUUAAGGAGAGGAUCUCACUGGGUUACCUAA, for which the “pre-steady-state target cleavage rate” value was 0.000923 ± 0.0095.
For the sequence CUUAACCUCUGGAUGUACUGGCUUACCUAA, the “pre-steady-state target cleavage rate” value is 0.00211 ± 0.0063.
Turning to CUUAAGGAGUGGUUCUACUGGGUUACCAAA, the “pre-steady-state target cleavage rate” value amounted to 0.00434 ± 0.0046.
Take CUUAAGGAGACGAUCUACUGGCGUUACCUAA: the “pre-steady-state target cleavage rate” value was 0.00103 ± 0.011.
In the case of CUUAAGGAGACCAUCUACUGGGAUUACCUAA, the “pre-steady-state target cleavage rate” value worked out at 0.00186 ± 0.0054.
Consider CUUAAGGAGACGAUGCUACUGGGUUACCUAA, for which the “pre-steady-state target cleavage rate” value worked out at 0.000566 ± 0.017.
Regarding CUUAAGGAGUGGAUCUACUGGGUUUCCAAA, the “pre-steady-state target cleavage rate” value is 0.000311 ± 0.025.
Regarding CUUAAGGACUGGAUCUUCUGGGUAACCUAA, the “pre-steady-state target cleavage rate” value was determined as 0.00258 ± 0.0099.
As to CUUAAGGACGGGAUCUACUGGGUUACCUAA, the “pre-steady-state target cleavage rate” value was determined as 0.0194 ± 0.025.
In the case of CUUAAGGUCUGGAUGUACUGCGUUACCUAA, the “pre-steady-state target cleavage rate” value was 0.00605 ± 0.0087.
For CUUAACCUCUGGAUCUACUGCGUUAGCUAA, the “pre-steady-state target cleavage rate” value was found to be 0.00288 ± 0.0056.
Next, CUUAACCUCUGAUCUACUGGGUUACCUAA: 0.0852 ± 0.019; CUUAAGGUCUGGAUCAACUGGGUUAGCUAA: 0.00225 ± 0.0057; CUUAAGGAGACGACUCUACUGGGUUACCUAA: 0.000423 ± 0.019.
In the case of CUUAAGGACUCGAUCUACUGGGAUACCUAA, the “pre-steady-state target cleavage rate” value was determined as 0.00144 ± 0.015.
With CUUAAGGAGACCUACUACUGGGUAACCUAA the figure was 0.00022 ± 0.026; with CUUAAGGACUGGUUCUACUGGGUUACCAAA, 0.00118 ± 0.016.
Take CUUAAGGAGACCUAGUACUGGGUUACAUAA: the “pre-steady-state target cleavage rate” value was 0.000157 ± 0.048.
With CUUAACCACUGCAUCUACUGGGUUACCUAA the figure was 0.0927 ± 0.018.
Next, CUUAAGCUCUGGAUCUACUGGCUUAGCUAA: 0.000493 ± 0.014; CUUAAGGAGAGGAUCUACUGCGUUACCUUA: 0.00139 ± 0.0078; CUUAAGGAGACCUUCUACUUGGUUACCUAA: 0.000725 ± 0.0082.
CUUAAGGACUGGAUCUACUGGGUUACCGUAA: the “pre-steady-state target cleavage rate” value amounted to 0.00241 ± 0.0085.
For the sequence CUUAAGGAGACCUACUACUUGGGUUACCUAA, the “pre-steady-state target cleavage rate” value worked out at 0.000254 ± 0.023.
CUUAAGCUCUGGAUCUCUGGGUUACCUAA: the “pre-steady-state target cleavage rate” value stood at 0.00275 ± 0.0047.
On to CUUAAGGAGACCAACUACUGGGUUACCUUA, for which the “pre-steady-state target cleavage rate” value was 0.000473 ± 0.02.
Next, CUUAUCCUCUGGAUCUACUGGGUUUGCUAA: 0.216 ± 0.041; CUUAUCCUGUGGAUCUACUGGGUUACGUAA: 0.0102 ± 0.0038.
Take CUUAAGGAGACCAUCUACUGCGUAACCUAA: the “pre-steady-state target cleavage rate” value is 0.000442 ± 0.014.
As for CUUAAGGAGACCAGUCUACUGGGUUACCUAA, the “pre-steady-state target cleavage rate” value turned out to be 0.00105 ± 0.0092.
As to CUUAAGGAGACCUAGAUGAGGGUUGACCUAA, the “pre-steady-state target cleavage rate” value is 0.000388 ± 0.027.
Turning to CUUAAGGAGUGCUUCUACUGGGUUACCUAA, the “pre-steady-state target cleavage rate” value came to 0.000779 ± 0.0081.
Next, CUUAAGGAGACCAUCUACUGGGAUACCUUA: 0.000149 ± 0.039; CUUAAGGACUGGAUCUACUGGGAAACCUAA: 0.000965 ± 0.018.
For the sequence CUUAAGCUCUGGAUCUAGUGGGUUUCCUAA, the “pre-steady-state target cleavage rate” value was determined as 0.0199 ± 0.0071.
Regarding CUUAAGGAGACGAUCUGACUGGGUUACCUAA, the “pre-steady-state target cleavage rate” value was determined as 0.000476 ± 0.017.
Consider CUUAACCUCUGGAUCUUACUGGGUUACCUAA, for which the “pre-steady-state target cleavage rate” value was found to be 0.00199 ± 0.0053.
Consider CUUAAGGAGACCAUCUACUCCGUUACCUAA, for which the “pre-steady-state target cleavage rate” value is 0.000172 ± 0.027.
Consider CUUAAGGAGACGAUCAACAGGGUUACCUAA, for which the “pre-steady-state target cleavage rate” value came to 0.00183 ± 0.0036.
Consider CUUAAGGAGACCUAGUACUCGGUUACCUAA, for which the “pre-steady-state target cleavage rate” value is 0.000111 ± 0.038.
For CUUAAGGAGACGAUCUAAUGGGUUACCUAA, the “pre-steady-state target cleavage rate” value worked out at 0.00269 ± 0.0047.
Next, CUUAACCUCUGGAUCUACUGCCUUACCUAA: 0.000151 ± 0.025; CUUAAGGAGAGGAUCUACUGGGUUCCCUAA: 0.00159 ± 0.0052; CUUAAGGAGUGGAUCUACUGGGUUUCGUAA: 0.000279 ± 0.022.
With CUUAAGGAGACGAUCUACUGGUUACCUAA, the “pre-steady-state target cleavage rate” value came out at 0.000538 ± 0.0053.
With CUUAAGGAGAGCAACUACUGGGUUACCUAA, the “pre-steady-state target cleavage rate” value is 0.000758 ± 0.0084.
In the case of CUUAAGGAGAGGAUCUACUGCGUAACCUAA, the “pre-steady-state target cleavage rate” value amounted to 0.00067 ± 0.017.
CUUAAGGAGACCUUCUACAGCGUUACCUAA: the “pre-steady-state target cleavage rate” value came to 0.00054 ± 0.018.
For the sequence CUUAAGGAGACGAUCUCCUGGGUUACCUAA, the “pre-steady-state target cleavage rate” value was found to be 0.00331 ± 0.0037.
In the case of CUUAAGGUCUGGUUCUACUGGCUUACCUAA, the “pre-steady-state target cleavage rate” value is 0.00172 ± 0.0083.
For CUUAAGGACUGGAUCUAGACGGUUACCUAA, the “pre-steady-state target cleavage rate” value was 0.00052 ± 0.028.
As to CUUAAGGAGUGGAUCUACUGGGUAAGCUAA, the “pre-steady-state target cleavage rate” value was found to be 0.000311 ± 0.03.
On to CUUAAGGAGAGGAUCUGCUGGGUUACCUAA, for which the “pre-steady-state target cleavage rate” value came out at 0.00355 ± 0.0037.
For the sequence “CUUAUCCUCUGGAUCUACUGGGUAUGGAUA [g8:g26:cont:t1A]”, the “pre-steady-state target cleavage rate” value amounted to 0.000935 ± 0.0091.
On to CUUAAGGUCUGGAUCUACUGGGAUAGCUAA, for which the “pre-steady-state target cleavage rate” value came to 0.00099 ± 0.011.
Regarding CUUAAGGAGACGAUCUACUGAGGUUACCUAA, the “pre-steady-state target cleavage rate” value is 0.00223 ± 0.0028.
For CUUAAGGAGACCUAGUACUGGGAAUCCUAA, the “pre-steady-state target cleavage rate” value is 0.000257 ± 0.03.
As for CUUAAGGACUGCAUCUACUGGGUUUCCUAA, the “pre-steady-state target cleavage rate” value amounted to 0.00268 ± 0.0081.
As for CUUAAGGAGACGAUCUACUCGGUUAGCUAA, the “pre-steady-state target cleavage rate” value turned out to be 0.000134 ± 0.04.
With CUUAAGGAGAGGUCUACUGGGUUACCUAA the figure was 0.00146 ± 0.0056; with CUUAAGGAGUGGAUCUAACUGGGUUACCUAA, 0.000351 ± 0.019; with CUUAAGGAGACCUAGUACUGGGUUACCCAA, 0.000103 ± 0.048.
Next, CUUAAGGAGACCUAGAUGAGGGUGUACCUAA: 0.000208 ± 0.049; CUUAUCCUCUGGAUCUACUGGCUUACGUAA: 0.000328 ± 0.032.
In the case of CUUAAGGAGACCUUCUAGUGGGUUACCUUA, the “pre-steady-state target cleavage rate” value turned out to be 0.000415 ± 0.017.
Consider CUUAAGGAGACCUUCUACUGGGUUACCUUAA, for which the “pre-steady-state target cleavage rate” value amounted to 0.000443 ± 0.019.
With CUUAAGGAGACCUUCUACUGGGAUUACCUAA, the “pre-steady-state target cleavage rate” value worked out at 0.00145 ± 0.007.
For the sequence CUUAAGGAGACCAUCUACUGGCUAACCUAA, the “pre-steady-state target cleavage rate” value came out at 0.000135 ± 0.027.
Consider CUUAAGGAGACCAACUACUGCGUUACCUAA, for which the “pre-steady-state target cleavage rate” value came to 0.00072 ± 0.012.
On to CUUAAGCCUCUGGAUCUACUGGGUUACCUAA, for which the “pre-steady-state target cleavage rate” value was 0.146 ± 0.043.
Next, CUUAAGGAGUGGAACUACUGGGUUACCUUA: 0.00631 ± 0.0078.
With CUUAUCCUCUGAGAUCUACUGGGUUACCUAA the figure was 0.106 ± 0.02; with CUUAAGGAGACGAUCUACACCGUUACCUAA, 0.000665 ± 0.022; with CUUAAGGAGUGGAUCUACUGCGUAACCUAA, 0.000878 ± 0.019.
Regarding CUUAAGGAGACCUUCUACUGGGUUAGCUAA, the “pre-steady-state target cleavage rate” value was found to be 0.000783 ± 0.01.
Consider CUUAACCUCUGGAUCUACUGGCUUACCUUA, for which the “pre-steady-state target cleavage rate” value is 0.000815 ± 0.0083.
CUUAAGGUCUGGAUCUACAGGCUUACCUAA: the “pre-steady-state target cleavage rate” value stood at 0.00108 ± 0.012.
For CUUAAGGAGACCAUCUACGGGGUUACCUAA, the “pre-steady-state target cleavage rate” value is 0.00366 ± 0.0053.
CUUAAGGACUGGAUCUACUGGGGUACCUAA: the “pre-steady-state target cleavage rate” value came to 0.00625 ± 0.0063.
Take CUUAAGGAGACCUACAUACUGGGUUACCUAA: the “pre-steady-state target cleavage rate” value was determined as 0.000344 ± 0.025.
For the sequence CUUAAGGAGACCAUCAUACUGGGUUACCUAA, the “pre-steady-state target cleavage rate” value came out at 0.000374 ± 0.029.
In the case of CUUAAGGAGACCUACUACAGGGUUACCUAA, the “pre-steady-state target cleavage rate” value turned out to be 0.000133 ± 0.022.
With CUUAAGGAGACCAUCUACUGGAGUUACCUAA, the “pre-steady-state target cleavage rate” value came out at 0.000335 ± 0.013.
Consider CUUAAGGAGACGAUCUACUCCGUUACCUAA, for which the “pre-steady-state target cleavage rate” value came to 0.0013 ± 0.0061.
As to CUUAAGGAGAGGAUCUAGUGGGUAACCUAA, the “pre-steady-state target cleavage rate” value was determined as 0.000155 ± 0.036.
Regarding CUUAAGGAGACCUAGUCCUGGGUUACCUAA, the “pre-steady-state target cleavage rate” value was 0.000197 ± 0.048.
For CUUAAGGACAGGAUCUACUGGGUAACCUAA, the “pre-steady-state target cleavage rate” value is 0.00647 ± 0.0078.
Consider CUUAAGGAGACCAUCUACUGGGUUACCGAA, for which the “pre-steady-state target cleavage rate” value was 0.000382 ± 0.016.
For CUUAAGGAGAGCAUCUACUGGCUUACCUAA, the “pre-steady-state target cleavage rate” value came out at 0.000931 ± 0.0058.
Consider CUUAAGGAGACCUAGAUGACGGUUACGUUA, for which the “pre-steady-state target cleavage rate” value amounted to 0.000563 ± 0.013.
Turning to CUUAACCACUGGAUCUACUCGGUUACCUAA, the “pre-steady-state target cleavage rate” value came out at 0.000525 ± 0.025.
